Measured values from ChEMBL document CHEMBL2150981, “Discovery and optimization of benzotriazine di-N-oxides targeting replicating and nonreplicating Mycobacterium tuberculosis” (J Med Chem, 2012).
In brackets after ≈: the same amount, converted by molar mass.

Legend:
[1] = test system: Mycobacterium tuberculosis; assay: Antitubercular activity against Mycobacterium tuberculosis H37Rv isolate SRI after 5 days by resazurin-based microplate assay; assay type: functional; settings: 120 h
In short: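 Mid-log cultures grown in 7H9 with glycerol, Tween-80 and ADC. Compounds in DMSO were tested two-fold from […] against ~10^5 CFU/mL, 37°C for 5 d. Resazurin was then added for a further 2 d, and fluorescence read at ex 530/em 590 with visual confirmation. MIC was the lowest concentration inhibiting 90% of growth. Final DMSO 0.625%; two-fold variation taken as assay error.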

[2] = test system: Mycobacterium tuberculosis; assay: Antitubercular activity against Mycobacterium tuberculosis H37Rv isolate ITR after 7 days by luminescence spectrometry; assay type: functional; settings: 168 h

Question: Which results are given for `O=C1OCCN1/N=C/c1ccc([N+](=O)[O-])o1` [FURAZOLIDONE]?
Answer: MIC90 [1]: 31 µg/mL (≈ 138 µM); MIC90 [2]: 30 µg/mL (≈ 133 µM)
